In paper PMC8558862 (Journal of Medicinal Chemistry, 2021):

Key:
[1] = general procedure: Fmoc solid-phase peptide synthesis; 2-chlorotrityl chloride resin (loading 1.60 mmol/g); PyBOP, DIPEA (printed for the tetrameric chelator); details: TFA salt; for final HPLC purity: 220 nm
[2] = general procedure: Fmoc solid-phase peptide synthesis; 2-chlorotrityl chloride resin; PyBOP, DIPEA (printed for the tetrameric chelator); details: whole synthesis, scale 0.8 mmol, TFA salt

In the case of C-GAESAPLVSSVQSPD, the “final HPLC purity” value ([1]; whole synthesis, scale of the general procedure 0.8 mmol) is reported as over 98%.
With CVVGSPSAQDEASPLS the “final HPLC purity” value ([1]; whole synthesis, scale of the general procedure 0.8 mmol, run 1) was over 98%, the “final HPLC purity” value ([1]; whole synthesis, scale of the general procedure 0.8 mmol, run 2) was over 95% and the isolated yield ([2]; based on the estimated loading of the resin) was 50%. The isolated mass [2] was 0.62 g.
For Gd4-TESMA, the “final HPLC purity” value ([1]; conjugation step) was over 95%, the conjugation yield ([1]; conjugation step) was 43% and the isolated yield ([1]; whole synthesis, overall, scale of the general procedure 0.8 mmol) was “about 60%”.

Where a sequence shows no end group, the ends are not given.
